# Experimental data from PubChem BioAssay AID493014 (National Center for Advancing Translational Sciences (NCATS), 2011).
# The other results are listed elsewhere or left out. Shown are side measurements of this screen, not its main read-out; they come without a call. Compounds called inactive in the main read-out are mostly missing here. Potencies come from curve fits of mixed quality, noted in brackets.
# Assay: qHTS Assay to Find Inhibitors of Chronic Active B-Cell Receptor Signaling
# Details: ABC-DLBCL IkBa-CBG/CBR reporter, luminescence ratio (green luciferase fused to IkBa over red control in TMD8 lymphoma cells), 4 h
# In short: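 Compounds up to 46 uM were incubated four hours with TMD8 cells whose green CBG68 luciferase is fused to IkappaBalpha; red CBR luminescence normalised the signal, and concentration-effect curves were fitted to fusion, red and ratio data.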
# [1] = measured here: CBR red luminescence, cell number
# [2] = measured here: IkBa-CBG green luminescence
SMILES,AC50 [1],AC50 [2]
Cc1ccccc1NC(=O)c1cc(C(=O)c2cc(Cl)ccc2O)cn(-c2ccccc2C)c1=O,"32.6 µM [falling, single point]",–
COc1ccc(/C=N/Nc2ccc(C(=O)O)cc2)cc1Br,–,"1.41 µM [rising, full curve, poor fit]"
Cc1sc2nc(COC(=O)c3ccc(Cl)c(N)c3)[nH]c(=O)c2c1C,"7.08 µM [falling, partial curve]",–
CC(C)Cc1nnc(NC(=O)c2ccc3c(c2)OCCO3)s1,"23.1 µM [falling, partial curve]",–
Cc1ccc(NC(=O)CN(C)CC(=O)Nc2ccc(N3CCOCC3)cc2)cc1F,"12.6 µM [falling, partial curve]",–
COc1ccc(C(=O)/C=C(\C)Nc2ccc(NC(C)=O)cc2)cc1,"15.8 µM [rising, single point]",–
Cc1cc(N2CCOCC2)n2nc(C)c(-c3ccccc3)c2n1,"7.08 µM [rising, partial curve, poor fit]",–
CCN(CC)c1ccc(/C=C(\C#N)c2ccccn2)cc1,"6.51 µM [rising, single point]","16.4 µM [falling, partial curve, poor fit]"
COc1ccc(-n2c(SCC(=O)O)nnc2-c2ccc(NC(=O)c3ccccc3)cc2)cc1,"3.16 µM [falling, single point]",–
CC(C)(C)NC(=O)c1cc(F)c(F)cc1Cl,"6.51 µM [falling, single point]",–
O=C(Nc1cc(Br)ccc1O)c1cc(-c2cccs2)on1,"7.08 µM [falling, full curve, poor fit]",–
N=c1ccn(Cc2ccccc2Cl)cc1,"3.66 µM [falling, full curve, poor fit]",–
O=C1COc2ccc(C(=O)COC(=O)Cc3ccccc3F)cc2N1,"11.2 µM [rising, single point]",–
CC(C)c1cc(O)c(-c2ccccc2)c(=O)n1-c1ccc(Cl)cc1,"25.1 µM [rising, single point]",–
Cc1cc(C)cc(NC(=O)CSc2nc(N)c(NC(=O)c3cccs3)c(=O)[nH]2)c1,"29.1 µM [rising, single point]",–
CN(C)CCCSc1ccccc1NC(=O)/C=C/c1ccccc1,"0.316 µM [falling, full curve]",–
CCc1ccccc1Nc1cc(C(=O)NCc2ccccn2)c2ccccc2n1,"4.47 µM [falling, partial curve, poor fit]",–
O=c1oc2ccccc2c(N2CCCCC2)c1CN1CCCCC1,"1.03 µM [falling, full curve]",–
Cc1ccc(/C=N/NC(=O)CN(Cc2ccccc2)S(=O)(=O)c2ccc3c(c2)OCCO3)cc1,–,"18.4 µM [falling, partial curve, poor fit]"
O=[N+]([O-])c1cc(Oc2cccnc2)cc([N+](=O)[O-])c1,"29.1 µM [rising, single point]",–
COc1cc(SC)ccc1C(=O)N1CCN(Cc2ccc3c(c2)OCO3)CC1,"20 µM [falling, partial curve, poor fit]",–

# Of the compounds above, two contain a COOH group:
SMILES,AC50 [1],AC50 [2]
COc1ccc(/C=N/Nc2ccc(C(=O)O)cc2)cc1Br,–,"1.41 µM [rising, full curve, poor fit]"
COc1ccc(-n2c(SCC(=O)O)nnc2-c2ccc(NC(=O)c3ccccc3)cc2)cc1,"3.16 µM [falling, single point]",–

# Later entries

SMILES,AC50 [1],AC50 [2]
O=C(Nn1c(SCc2ccccc2F)nc2ccsc2c1=O)c1ccccc1,"5.17 µM [rising, full curve, poor fit]",–
Cc1oc2ccc(OCc3ccccc3F)cc2c1C(=O)O,"1.64 µM [rising, full curve, poor fit]",–
CCCn1nnc(NC(=O)c2ccc3ccccc3c2)n1,"20 µM [falling, single point]",–
COc1ccc(-c2csc(-c3cccnc3)n2)cc1C,"5.62 µM [rising, partial curve]",–
CSc1ccc(NC(=O)Nc2cccn(Cc3ccccc3F)c2=O)cc1,"12.6 µM [rising, partial curve]",–
COc1ccc(C(=O)O)nc1C,"35.5 µM [falling, partial curve, poor fit]",–
COC(=O)C1CCN(C(=O)c2oc3c(Cl)cc(C)cc3c2C)CC1,"0.631 µM [rising, partial curve, poor fit]",–
Cc1ccccc1CS(=O)(=O)c1ccc(C(=O)N2CCOCC2)cc1[N+](=O)[O-],"2.24 µM [falling, full curve]",–
N/C(=N\OC(=O)Cc1ccccc1[N+](=O)[O-])c1ccncc1,"0.58 µM [rising, full curve, poor fit]",–
C1=C(c2ccccc2)CCN(c2nc3ccccc3n3cnnc23)C1,"18.4 µM [falling, partial curve]",–
CCCCN1CC(=O)N2[C@H]3c4cc(Cl)ccc4OC[C@@H]3[C@H](C(=O)OCC)[C@]2(C)C1=O,"11.6 µM [falling, partial curve, poor fit]",–
COc1ccc(-c2onc(C)c2-c2ccccc2)c(O)c1,"29.1 µM [rising, single point]",–
COc1ccccc1C(=O)COC(=O)COc1cccc2c1OC(C)(C)C2,"8.91 µM [rising, partial curve, poor fit]",–
Cc1ccccc1C(=O)NNC(=O)CCc1ccccc1,"11.2 µM [falling, partial curve]",–
COC(=O)c1ccc(OCC(=O)c2ccccc2)cc1,"5.17 µM [falling, single point]",–
CCc1ccc(OCC(=O)NCC(c2ccc(Cl)cc2)N2CCCCC2)cc1 (stereo not drawn),"17.8 µM [falling, single point]",–
Cc1ccc2nc(SCC(=O)Nc3cccc([N+](=O)[O-])c3)[nH]c2c1,"25.1 µM [falling, single point]",–
CCOC(=O)C1(CCOC)CCN(Cc2ccc(C3CCCCO3)s2)CC1 (stereo not drawn),"3.16 µM [rising, single point]",–
COc1ccc(-c2csc(N(CC(C)C)C(=O)c3ccco3)n2)cc1,"10 µM [rising, partial curve, poor fit]",–
COc1ccc(C(=O)N2CCCC(c3nc(-c4cccs4)no3)C2)cc1 (stereo not drawn),"11.2 µM [rising, partial curve, poor fit]",–
Cc1ccc(NC(=O)COc2ccc3c(c2)OCO3)c(Cl)c1,"20.6 µM [rising, single point]",–
